Test: Aldehyde reactivity of compounds: fluorogenic reaction with acetaldehyde in phosphate buffer, excitation/emission spectra
Assay type: physicochemical
Method: Spectra were taken at pH 6 in a 50 mM phosphate buffer solution.
Spectra were taken at pH 6 in 50 mM phosphate buffer solution.
A sample of Compound 2 (5 mg, 0.0126 mmol) is dissolved in 10 ml of pH 6.5, 50 mmol phosphate buffer solution. To this non-fluorescent solution, is added 25 ul, 1 mol solution of acetaldehyde in water at room temperature. […] The reaction is complete in 10 minutes to give a stable […] analog. Its absorption max is at 548 nm and emission max is at 580 nm (see FIGS. 3A and B).

In the case of `NN=c1ccc2c(-c3ccccc3S(=O)(=O)O)c3ccc(NN)cc3oc-2c1` [Compound 2, 2-(6-hydrazinyl-3-hydrazono-3H-xanthen-9-yl)benzenesulfonate], the “fluorescence of solution before addition of acetaldehyde” value (5 mg in 10 ml pH 6.5, 50 mmol phosphate buffer) is reported as “non-fluorescent” and the “fluorescent emissions from excitation at 519 nm, un-reacted compound” value (un-reacted dye, excitation at 519 nm, FIG. 3A) is reported as “no fluorescent emissions detected”.
